Laboratory results reported in patent US20110021746A1 (published 2011).
No constants are given. Whether binding was seen depends on the method and setting. Some binding calls cover weakened binding; strength is not graded here.

Sequences of proteins named here, by UniProt entry; tags and fusion partners are left off. Residues count along the entry.
UniProt P30530, residues 26-449: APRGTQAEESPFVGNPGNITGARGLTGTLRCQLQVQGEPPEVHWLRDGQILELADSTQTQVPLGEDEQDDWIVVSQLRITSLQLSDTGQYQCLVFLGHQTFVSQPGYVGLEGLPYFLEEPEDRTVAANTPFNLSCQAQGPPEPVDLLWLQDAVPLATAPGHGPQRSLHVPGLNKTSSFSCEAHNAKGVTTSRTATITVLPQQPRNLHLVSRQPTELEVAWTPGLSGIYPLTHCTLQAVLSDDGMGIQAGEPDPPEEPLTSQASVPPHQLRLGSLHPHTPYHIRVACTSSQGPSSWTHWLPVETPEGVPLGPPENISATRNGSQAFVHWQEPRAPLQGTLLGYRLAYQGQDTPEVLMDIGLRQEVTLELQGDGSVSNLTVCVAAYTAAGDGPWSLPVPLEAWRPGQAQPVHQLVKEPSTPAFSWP

Target: Axl (UniProt P30530)
Assay: phage display selection

Binder	binding
SEQ ID NO 332 (designed binder) NVSPPRRARVTDATETTITIRWAVPGFQVDAVPANGQTPIQRTIKRNVSVYTITGLQPGTDYKIYLYTLNDNARSSPVVIDAST	binds
1637110_AXLH01 (designed binder) NVSPPRRARVTDATETTITIRWKVDGFQVDAVPANGQTPIQRTITRNTRTYTITGLQPGTDYKIYLYTLNDNARSSPVVIDAST	binds
SEQ ID NO 334 (designed binder) NVSPPRRARVTDATETTITIRWKVLGFQVDAVPANGQTPIQRTIARGARTYTITGLQPGTDYKIYLYTLNDNARSSPVVIDAST	binds
SEQ ID NO 335 (designed binder) NVSPPRRARVTDATETTITIRWKGAQFQVDAVPANGQTPIQRTIARGANVYTITGLQPGTDYKIYLYTLNDNARSSPVVIDAST	binds
SEQ ID NO 336 (designed binder) NVSPPRRARVTDATETTITISWPVPGFQVDAVPANGQTPIQRTIKRDVNSYTITGLQPGTDYKIYLYTLNDNARSSPVVIDAST	binds
SEQ ID NO 337 (designed binder) NVSPPRRARVTDATETTITIRWGTGFQVDAVPANGQTPIQRTIKRSITSYTITGLQPGTDYKIYLYTLNDNARSSPVVIDAST	binds
SEQ ID NO 338 (designed binder) NVSPPRRARVTDATETTITIRWALPRSAFDRFQVDAVPANGQTPIQRTITTNIRAYTITGLQPGTDYKIYLYTLNDNARSSPVVIDAST	binds
1637110_AXLE11 (designed binder) NVSPPRRARVTDATETTITIRWAQVLSFQVDAVPANGQTPIQRTIKRDVHSYTITGLQPGTDYKIYLYTLNDNARSSPVVIDAST	binds
SEQ ID NO 340 (designed binder) NVSPPRRARVTDATETTITIRWTVGGRANSTIPGFQVDAVPANGQTPIQRTITRDIHIYTITGLQPGTDYKIYLYTLNDNARSSPVVIDAST	binds
SEQ ID NO 341 (designed binder) NVSPPRRARVTDATETTITIRWELSRGTITGFQVDAVPANGQTPIQRTIKGAKRSYTITGLQPGTDYKIYLYTLNDNARSSPVVIDAST	binds
SEQ ID NO 342 (designed binder) NVSPPRRARVTDATETTITIRWGPSQGTVTRFQVDAVPANGQTPIQRTIKRAIHTYTITGLQPGTDYKIYLYTLNDNARSSPVVIDAST	binds
SEQ ID NO 343 (designed binder) NVSPPRRARVTDATETTITIRWPAPGFQVDAVPANGQTPIQRTIKRTVNVYTITGLQPGTDYKIYLYTLNDNARSSPVVIDAST	binds
SEQ ID NO 344 (designed binder) NVSPPRRARVTDATETTITITWAGPEFQVDAVPANGQTPIQRTIHRGITSYTITGLQPGTDYKIYLYTLNDNARSSPVVIDAST	binds
SEQ ID NO 345 (designed binder) NVSPPRRARVTDATETTITIRWELPAGTVNGFQVDAVPANGQTPIQRTIKGAKRGYTITGLQPGTDYKIYLYTLNDNARSSPVVIDAST	binds
SEQ ID NO 346 (designed binder) NVSPPRRARVTDATETTITIRWSQPGFQVDAVPANGQTPIQRTIARATRAYTITGLQPGTDYKIYLYTLNDNARSSPVVIDAST	binds
SEQ ID NO 347 (designed binder) NVSPPRRARVTDATETTITIRWTPPGFQVDAVPANGQTPIQRTIKRNVNVYTITGLQPGTDYKIYLYTLNDNARSSPVVIDAST	binds
SEQ ID NO 348 (designed binder) NVSPPRRARVTDATETTITIRWPILGFQVDAVPANGQTPIQRTIKRSTHAYTITGLQPGTDYKIYLYTLNDNARSSPVVIDAST	binds
SEQ ID NO 349 (designed binder) NVSPPRRARVTDATETTITIRWALPRSEFTRFQVDAVPANGQTPIQRTITSNIRTYTITGLQPGTDYKIYLYTLNDNARSSPVVIDAST	binds
SEQ ID NO 350 (designed binder) NVSPPRRARVTDATETTITISWPAGFQVDAVPANGQTPIQRTIKRGKRTYTITGLQPGTDYKIYLYTLNDNARSSPVVIDAST	binds
SEQ ID NO 351 (designed binder) NVSPPRRARVTDATETTITIRWKIAGFQVDAVPANGQTPIQRTIHRGVRAYTITGLQPGTDYKIYLYTLNDNARSSPVVIDAST	binds
SEQ ID NO 352 (designed binder) NVSPPRRARVTDATETTITIRWKVPGFQVDAVPANGQTPIQRTIHRGATVYTITGLQPGTDYKIYLYTLNDNARSSPVVIDAST	binds
1637110_AXLF07 (designed binder) NVSPPRRARVTDATETTITIRWGQFDRFQVDAVPANGQTPIQRTIKRTVHSYTITGLQPGTDYKIYLYTLNDNARSSPVVIDAST	binds
1637110_AXLA12 (designed binder) NVSPPRRARVTDATETTITIRWKVDGFQVDAVPANGQTPIQRTIHRGITVYTITGLQPGTDYKIYLYTLNDNARSSPVVIDAST	binds
SEQ ID NO 355 (designed binder) NVSPPRRARVTDATETTITIRWAGSGFQVDAVPANGQTPIQRTINRGISAYTITGLQPGTDYKIYLYTLNDNARSSPVVIDAST	binds
SEQ ID NO 356 (designed binder) NVSPPRRARVTDATETTITISWKVRFQVDAVPANGQTPIQRTITSSVRSYTITGLQPGTDYKIYLYTLNDNARSSPVVIDAST	binds
SEQ ID NO 357 (designed binder) NVSPPRRARVTDATETTITIRWAPPEGFQVDAVPANGQTPIQRTIHRSARSYTITGLQPGTDYKIYLYTLNDNARSSPVVIDAST	binds
SEQ ID NO 358 (designed binder) NVSPPRRARVTDATETTITIRWSQVPGFQVDAVPANGQTPIQRTITSDIHIYTITGLQPGTDYKIYLYTLNDNARSSPVVIDAST	binds
SEQ ID NO 359 (designed binder) NVSPPRRARVTDATETTITISWQQGFQVDAVPANGQTPIQRTIKRSISSYTITGLQPGTDYKIYLYTLNDNARSSPVVIDAST	binds
SEQ ID NO 360 (designed binder) NVSPPRRARVTDATETTITITWRPPGFQVDAVPANGQTPIQRTIKRNASSYTITGLQPGTDYKIYLYTLNDNARSSPVVIDAST	binds
